# The whole screen tested about 390,000 compounds, of which about 610 (0.16%) were called active. Inconclusive means that the source gave no clear call. Such entries were picked first, then a sample of the others. The call rests on the fitted dose curve; in most records, active means well fitted inhibition curve with a large enough effect; inconclusive means small, poorly fitted or top-dose-only effect, or effect the other way, or another doubt; inactive means no such curve, though single readings can be large or run the other way. A potency beside an inconclusive call is a rough fit, not a confirmed value.
# Experiment: Nrf2 qHTS screen for inhibitors: counterscreen for cytotoxicity
# Conditions: A549 ARE-Fluc cells, CellTiter-Fluor viability, 18-24 h; series mostly up to 46 µM
# Procedure, shortened: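 A549 ARE-Fluc cells in 5% FBS OPTI-MEM, 5000 cells/well, rested 2 h then exposed to compounds in concentration-response for 18-24 h at 37 °C. Viability by CellTiter-Fluor fluorescence (Ex 405/Em 525) after 30 min; luciferase luminescence (BugLite, 15 min, RT) read afterwards.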
# Potency means the concentration at half of the fitted maximal effect.
row,SMILES,Potency
1,COc1ccc2[nH]c3c(c2c1)CCN1C(=O)C(CC(=O)NCC24CC5CC(CC(C5)C2)C4)C[C@H](C(=O)N2CCCCC2)[C@@]31C (stereo partly drawn),"inconclusive: 29.1 µM [falling, single point]"
2,Cc1ccc(NCN2C(=O)C(=O)c3ccccc32)nc1,inactive
3,Cc1ccc(NC(=O)C2CCN(C(=O)c3cnn(-c4ccccc4)c3-n3cccc3)CC2)cc1,inactive
4,CCC(Oc1ccc(C)cc1)C(=O)Nc1ccc(S(=O)(=O)Nc2nccs2)cc1 (stereo not drawn),"inconclusive: 14.6 µM [falling, partial curve, poor fit]"
5,O=C(O)c1ccc(NC(CSCc2ccc(F)cc2)C(=O)O)c([N+](=O)[O-])c1 (stereo not drawn),"inconclusive: 29.1 µM [falling, single point]"
6,c1ccc(-c2cn3nc4c(nc3n2)CCCC4)cc1,"inconclusive: 16.4 µM [activator, partial curve]"
7,COc1cc(C(=O)NCC(c2cccs2)N2CCc3ccccc32)cc(OC)c1OC (stereo not drawn),"inconclusive: 29.1 µM [falling, partial curve, poor fit]"
8,CCn1c(=O)cc(OCC(=O)Nc2ccc(C)cn2)c2ccccc21,"inconclusive: 29.1 µM [falling, single point]"
9,CCOc1ccc(NC(=O)c2ccc(NCC(=O)N3CCCCCC3)cc2)cc1,"inconclusive: 16.4 µM [falling, single point]"
10,COc1ccc(-c2cn(-c3ccc(C)cc3)c(S(=O)(=O)CC(=O)Nc3ccccc3)n2)cc1,"inconclusive: 20.6 µM [falling, partial curve, poor fit]"
11,O=C1/C(=C/c2cccs2)SC(=S)N1CCCC(=O)N(CCO)c1ccccc1,"inconclusive: 16.4 µM [falling, single point]"
12,O=C(c1cccc(Cl)c1)N(Cc1ccco1)C1CCS(=O)(=O)C1 (stereo not drawn),inactive
13,Cc1ccc(C)c(OCC(=O)Nc2nonc2NC(=O)COc2cc(C)ccc2C)c1,"inconclusive: 9.2 µM [falling, single point]"
14,Cc1ccc(S(=O)(=O)N2CCN(c3cc4c(cc3[N+](=O)[O-])n(C)c(=O)n4C)CC2)cc1,inactive
15,O=C(CSC1=NS(=O)(=O)c2ccccc21)Nc1ccccc1,inactive
16,Brc1ccc2nc3c(n2c1)CCCC3,inactive
17,CC(C(=O)NCc1cccc(Br)c1)n1ncn2cccc2c1=O (stereo not drawn),"inconclusive: 18.4 µM [falling, partial curve, poor fit]"
18,O=C(C[C@H]1C[C@H](C(=O)N2CCOCC2)[C@@]2(CCC3CCCC3)c3[nH]c4cc(-c5ccco5)ccc4c3CCN2C1=O)NCCc1ccccn1,"inconclusive: 29.1 µM [falling, single point]"
19,CC1=C(C(=O)Nc2ccc(C)cc2Cl)C2(CCCCC2)OC1=O,"inconclusive: 4.11 µM [activator, partial curve, poor fit]"
20,CCCCNC(=O)c1ccccc1NC(=O)c1ccc2c(c1)OCO2,"inconclusive: 0.291 µM [activator, full curve, poor fit]"
21,Cn1cc(-c2cc3n(n2)CCC(=O)N3CCCC(=O)Nc2ccccc2Cl)c2ccccc21,"inconclusive: 29.1 µM [falling, single point]"
22,NS(=O)(=O)c1ccc(N=Nc2c(O)c(C(=O)O)cc3ccccc23)cc1,"inconclusive: 18.4 µM [falling, single point]"
23,O=c1oc2ccc3ccccc3c2cc1-c1nc2ccccc2o1,"inconclusive: 3.66 µM [activator, partial curve]"

row,SMILES,Potency
1,Cc1ccc(-c2nc(C)sc2CC(=O)NCc2ccco2)cc1,"inconclusive: 6.51 µM [activator, partial curve, poor fit]"
2,Cc1ccc(-c2nc(S(=O)(=O)c3ccccc3)c(SCC(=O)NCC3CCCO3)o2)cc1 (stereo not drawn),"inconclusive: 25.9 µM [falling, single point]"
3,COc1ccc(-c2ccccc2)cc1NCc1ccccc1C,inactive
4,CCN(CC)Cc1cc(Nc2ccnc3cc(Cl)ccc23)ccc1O,"inconclusive: 29.1 µM [falling, single point]"
5,O=C(C[n+]1ccc(C(=O)NCc2ccccc2)cc1)c1ccc2c(c1)OCCO2,inactive
6,N#C/C(=C/c1ccc(N2CCCCCC2)o1)c1ccc(F)cc1,inactive
7,COC(=O)c1cc2oc(C)cc2n1Cc1ccc(C)cc1,"inconclusive: 20.6 µM [activator, single point]"
8,Fc1cnc(N2CCOCC2)nc1NCc1ccccc1,"inconclusive: 6.51 µM [activator, partial curve, poor fit]"
9,CCC(=O)C1=C(c2ccc(F)cc2)N(C(=O)CC)n2c(nnc2C2CCCCC2)S1,inactive
10,COc1ccc(CCn2c(=N)c(C(=O)NCC3CCCO3)cc3c(=O)n4ccccc4nc32)cc1OC (stereo not drawn),"inconclusive: 25.9 µM [falling, partial curve, poor fit]"
11,COc1ccc(-c2c(-c3ccc4c(c3)OCO4)c3ccccc3n2C)cc1,"inconclusive: 4.11 µM [activator, full curve, poor fit]"
12,Cc1ccccc1CS(=O)(=O)c1ncc(Cl)c(C(=O)Nc2nnc(C(C)C)s2)n1,"inconclusive: 32.6 µM [falling, single point]"
13,CCc1ccc(CNC(=O)C2CCN(C(=O)c3ccc(-n4ccc5ccccc54)s3)CC2)cc1,inactive
14,COc1cccc(/C=N/NC(=O)c2nnn(-c3nonc3N)c2C(C)C)c1,"inconclusive: 14.6 µM [falling, single point]"
15,Cc1ccccc1-c1noc(-c2cc(C(C)C)[nH]n2)n1,inactive
16,Cc1ccc2[nH]c(=O)c(CN(CC3COCCO3)C(=O)Nc3ccccc3F)cc2c1 (stereo not drawn),"inconclusive: 16.4 µM [falling, partial curve, poor fit]"
17,O=C1C=CC(=Nc2ccc3c(c2)Cc2cc(F)ccc2-3)O1,inactive
18,OC(CNc1ccccc1)COc1ccc(OCC(O)CNc2ccccc2)cc1 (stereo not drawn),"inconclusive: 29.1 µM [falling, single point]"
19,Cc1ccc(NC(=O)C2CSC3(C)CCC(=O)N23)cc1S(=O)(=O)N1CCOCC1 (stereo not drawn),inactive
20,COc1ccc(-c2cc(CNC(=O)CCl)on2)cc1,"inconclusive: 20.6 µM [falling, single point]"
21,Cc1cc(C)c2nc(NNC(=O)c3ccc(S(=O)(=O)N4CCc5ccccc5C4)cc3)sc2c1,"inconclusive: 1.84 µM [falling, partial curve, poor fit]"
22,CC(C)N1CCN(C(=O)c2ccc(OC3CCN(CCc4ccccc4)CC3)cc2)CC1,"inconclusive: 14.6 µM [falling, partial curve]"
23,CCOc1cc2c(C#N)c(N3CCNCC3)nc(N)c2c(N)n1,"inconclusive: 5.17 µM [activator, full curve, poor fit]"

# Quoted from the listing.
# In Potency, CCN(CC)Cc1cc(Nc2ccnc3cc(Cl)ccc23)ccc1O is entered as inconclusive: 29.1 µM [falling, single point]
# In Potency, CCC(=O)C1=C(c2ccc(F)cc2)N(C(=O)CC)n2c(nnc2C2CCCCC2)S1 is entered as inactive
# In Potency, Cc1ccc(-c2nc(S(=O)(=O)c3ccccc3)c(SCC(=O)NCC3CCCO3)o2)cc1 (stereo not drawn) is entered as inconclusive: 25.9 µM [falling, single point]

# Additional entries:

row,SMILES,Potency
1,Cc1ccc(-n2c(SCc3ccccc3C)nc3[nH]ncc3c2=O)cc1C,"inconclusive: 14.6 µM [falling, single point]"
2,CCSc1nc(-c2ccccc2)nc(C(Cl)Cl)n1,"inconclusive: 29.1 µM [falling, single point]"
3,O=C(NCc1ccccc1F)c1ccncc1,inactive
4,O=C(c1ccc(Cl)c(Cl)c1)N1CCC(=O)N(C(COCc2cccc(C(F)(F)F)c2)Cc2ccccc2)CC1 (stereo not drawn),"inconclusive: 29.1 µM [falling, single point]"
5,C=CCn1c(-c2oc3nc(-c4ccccc4)cc(-c4ccccc4)c3c2N)n[nH]c1=S,"inconclusive: 13 µM [activator, partial curve, poor fit]"
6,Cc1[nH]c2ccccc2c1C(=O)CN1CCC(C)CC1,inactive
7,CCc1cc2c(s1)c1cnn(Cc3ccccc3F)c(=O)c1n2C,inactive
8,COC(=O)c1[nH]c2ccc(Cl)cc2c1NC(=O)CN1CCc2cc(OC)c(OC)cc2C1,inactive
9,O=S(=O)(c1ccc(F)cc1)N1CCCC(c2nc(-c3ccc(F)cc3)no2)C1 (stereo not drawn),inactive
10,O=C(NCCN1CCOCC1)NC1(C(F)(F)F)Oc2ccccc2O1,"inconclusive: 25.9 µM [falling, partial curve, poor fit]"
11,CN1CCC(=O)N([C@H](CN=[N+]=[N-])Cc2ccccc2)CC1,"inconclusive: 18.4 µM [falling, single point]"
12,Cc1ccc(OCC(O)Cn2c(=N)n(Cc3ccccc3)c3ccccc32)cc1 (stereo not drawn),inactive
13,COCCCNC(=O)Cc1ccccc1OC,inactive
14,COc1cccc(C(C(=O)NC2CCCCC2)N(CCN2CCOCC2)C(=O)C2COc3ccccc3O2)c1 (stereo not drawn),"inconclusive: 20.6 µM [falling, partial curve, poor fit]"
15,O=C(Nc1cccc(S(=O)(=O)N2CCCCCC2)c1)c1ccc(Cl)nc1,"inconclusive: 18.4 µM [falling, partial curve, poor fit]"
16,Cc1[nH]n(-c2ccccc2)c(=O)c1C(=O)c1ccc([N+](=O)[O-])cc1,inactive
17,O=C(NCc1cccnc1)c1ccc(NS(=O)(=O)c2cccc([N+](=O)[O-])c2)cc1,inactive
18,CC(NC(=O)C1=CC=CN2CCS(=O)(=O)N=C12)c1ccc(Cl)cc1Cl (stereo not drawn),inactive
19,O=C(COc1cccc(NC(=O)c2cccc([N+](=O)[O-])c2)c1)c1ccc(Br)cc1,"inconclusive: 29.1 µM [falling, single point]"
20,CCCCN(CC)C(=O)c1ccc(-c2ccccc2)cc1,"inconclusive: 14.6 µM [activator, partial curve, poor fit]"
21,Cc1ccc(S(=O)(=O)c2cnc(-c3ccccc3)[nH]c2=O)cc1,inactive
22,CCOC(=O)c1c(C)oc2nc(C)nc(N3CCN(c4cccc(C)c4C)CC3)c12,"inconclusive: 23.1 µM [activator, partial curve, poor fit]"
